Test results taken from ChEMBL document CHEMBL1126003 (Bioorg Med Chem Lett, 1991).

Sequences of proteins named here, by UniProt entry; tags and fusion partners are left off.
UniProt P02550, whole entry, looked up: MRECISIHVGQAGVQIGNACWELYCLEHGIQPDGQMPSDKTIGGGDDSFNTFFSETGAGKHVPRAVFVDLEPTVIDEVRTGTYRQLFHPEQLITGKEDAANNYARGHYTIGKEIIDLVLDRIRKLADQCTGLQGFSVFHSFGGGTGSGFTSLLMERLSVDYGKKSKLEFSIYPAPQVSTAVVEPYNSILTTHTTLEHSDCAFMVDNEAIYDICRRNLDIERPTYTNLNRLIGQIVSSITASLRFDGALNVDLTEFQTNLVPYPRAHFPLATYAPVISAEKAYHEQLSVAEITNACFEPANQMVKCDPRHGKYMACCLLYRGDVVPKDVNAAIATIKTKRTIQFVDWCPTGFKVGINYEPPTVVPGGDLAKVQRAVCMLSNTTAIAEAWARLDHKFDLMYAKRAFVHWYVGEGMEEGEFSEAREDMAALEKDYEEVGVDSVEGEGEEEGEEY

Target: Tubulin alpha chain (Sus scrofa, UniProt P02550)

**Q.** How did the Ki turn out when `COc1cc2c(c(OC)c1OC)-c1ccc(SC)c(=O)cc1[C@@H](NC(C)=O)CC2` [THIOCOLCHICINE] was run?
**A.** The Ki was 700 nM.
